Data published in patent publication US20090221664A1, “PHARMACEUTICAL COMPOSITIONS OF MUSCARINIC RECEPTOR ANTAGONISTS” (priority 2005, published 2009).

System: carbachol precontracted guinea-pig isolated trachea
Assay: In-vitro functional assay: relaxation of carbachol precontracted guinea-pig isolated trachea by PDE-IV inhibitors with or without MRA preincubation
Conditions: PDE-IV inhibitor alone (vehicle preincubation); for Tension(gm) After carbachol challenge: 1 μM carbachol
Description: Guinea Pigs (400-600 gm) were procured and trachea was removed under anesthesia (sodium pentobarbital, 300 mg/kg i.p) and immediately kept in ice-cold Krebs Henseleit buffer. Indomethacin (10 uM) was present throughout the KH buffer to prevent the formation of bronchoactive prostanoids.
The tissue of adherent fascia was removed and cut into strips of equal size (with approx. 4-5 tracheal rings in each strip). The epithelium was removed by careful rubbing, minimizing damage to the smooth muscle. […] Opposite ends of the cut rings were tied with the help of a thread. The tissue was mounted in isolated tissue baths containing 10 ml Krebs Henseleit buffer maintained at 37° C. and bubbled with carbogen, at a basal tension of 1 gm. The buffer was changed 4-5 times for about an hour. Equilibration of the tissue was done for 1 hr for stabilization. After 1 hr, the tissue was challenged with 1 μM carbachol. This was repeated after every 2-3 washes till two similar consecutive responses were obtained. At the end of stabilization, the tissues were incubated with suboptimal dose of MRA/Vehicle for 20 minutes prior to contraction of the tissues with 1 μM carbachol. The relaxant activity of the PDE-IV inhibitor [10^−9M to 10^−4 M] on the stabilized developed tension/response was subsequently assessed. The contractile response of tissues was recorded either on Powerlab data acquisition system or on Grass polygraph (Model 7). The relaxation was expressed as percentage of maximum carbachol response and EC25 was calculated as the concentration producing 25% of the maximum relaxation to 1 μM carbachol. The percent relaxation between the treated and control tissues were compared using non-parametric unpaired t-test. A p value of <0.05 is considered to be statistically significant.

| Structure (SMILES) | Tension(gm) Before carbachol challenge | Tension(gm) After carbachol challenge |
| --- | --- | --- |
| COc1ccc(C2=NO[C@]3(CCOC3)C2)cc1OC1CCCC1 [Compound No. 124aa, (S)-3-[3-(cyclopentyloxy)-4-methoxyphenyl]-1,7-dioxa-2-azaspiro[4.4]non-2-ene] | 1.84 ± 0.32 gm | 1.99 ± 0.40 gm |
| O=C(Nc1c(Cl)cncc1Cl)c1ccc(OC(F)F)c(OCC2CC2)c1 [Roflumilast] | 1.38 ± 0.22 gm | 1.57 ± 0.22 gm |
| COc1ccc(C2CNC(=O)C2)cc1OC1CCCC1 (stereo not drawn) [Rolipram] | 1.24 ± 0.04 gm | 1.16 ± 0.30 gm |
